According to PubChem BioAssay AID624297 (National Center for Advancing Translational Sciences (NCATS), 2012):
Screen size: about 340,000 compounds; about 6,200 (1.8%) were called active. Inconclusive means that the source gave no clear call. Such entries were picked first, then a sample of the others. The call rests on the fitted dose curve; in most records, active means well fitted activation curve with a large enough effect; inconclusive means small, poorly fitted or top-dose-only effect; inactive means no such curve, though single readings can be large or run the other way. A potency beside an inconclusive call is a rough fit, not a confirmed value.

Assay: A quantitative high throughput screen for small molecules that induce DNA re-replication in SW480 colon adenocarcinoma cells. Further: nearly all actives have a fitted effect of over 55% in size. On re-replication activation: % of control where 0% means no effect.
Settings: Hoechst DNA content imaging, 48 h; re-replication activation: at 46.1 µM (top of the series) unless noted
Summary of the method: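 Cells (250 per well) received 23 nL compound or DMSO by pin tool and were kept 48 hr at 37 C, 5% CO2. Nuclei were then stained with Hoechst for 40 min and scanned for DNA content.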
Potency means the concentration at half of the fitted maximal effect.

SMILES | re-replication activation | Potency
O=c1[nH]c(/C=C/c2ccccn2)nc2ccccc12 | inconclusive: 65.3% [activator] | –
Cc1cccc(NC(=O)CN(CCc2ccccc2)S(C)(=O)=O)c1 | – | inconclusive: 9.2 µM [activator, partial curve, poor fit]
Cc1cc(C)nc(N/N=C/C2=C(O)CC(c3ccc(F)cc3)CC2=O)n1 (stereo not drawn) | – | inconclusive: 7.31 µM [activator, single point]
CCc1ccc(CN(C)C(=O)CCc2nc3ccccc3n(-c3ccc(OC)cc3)c2=O)cc1 | – | inconclusive: 23.1 µM [activator, partial curve, poor fit]
c1ccc(CN2CCN(c3nc(-c4ccccc4)nc4ccccc34)CC2)cc1 | – | inconclusive: 11.6 µM [activator, partial curve, poor fit]
COc1cc(/C=N/NC(=O)c2cccnc2)ccc1OS(=O)(=O)c1cc(C)ccc1C | – | inconclusive: 29.1 µM [activator, single point]
N#C/C(=C\c1ccncc1)c1ccccn1 | – | inconclusive: 29.1 µM [activator, single point]
Cc1cccc(NC(=O)CCc2nc3sc4c(c3c(=O)[nH]2)CCCC4)c1 | – | inconclusive: 29.1 µM [activator, partial curve, poor fit]
Cn1c(NCc2cccs2)nc2ccccc21 | inactive: -5.12% [at 9.22 µM] | –
O=C1c2cccc3c([N+](=O)[O-])ccc(c23)C(=O)N1c1ccccn1 | – | active: 11.6 µM
Cc1cn([C@H]2CC(F)[C@@H](CO)O2)c(=O)[nH]c1=O (stereo partly drawn) | – | inactive
CN1c2ccccc2N(C)C1(C)c1cccc2ccccc12 | – | inconclusive: 16.4 µM [activator, single point]
CCCCCN1C2=NCCN2c2ccccc21 | – | inconclusive: 0.116 µM [activator, full curve, poor fit]
CN(C)CCNC(=O)c1cccc(S(=O)(=O)Nc2ccc(F)cc2)c1 | – | inconclusive: 14.6 µM [activator, partial curve, poor fit]
O=C(N/N=C/C(Br)=C\c1ccccc1)c1cccs1 | – | inconclusive: 23.1 µM [activator, single point]
COc1ccc(NC(=O)CSCC(=O)N(C)CC(=O)Nc2ccc(Cl)c(C(F)(F)F)c2)cc1 | – | inconclusive: 23.1 µM [activator, partial curve, poor fit]
COc1ccc(C2=Nn3c(nnc3C(F)(F)F)SC2)cc1 | – | inconclusive: 29.1 µM [activator, single point]
COc1ccc(N(CC(=O)Nc2ccc(C)cc2C)S(=O)(=O)c2c(C)n[nH]c2C)cc1 | – | inconclusive: 20.6 µM [activator, single point]
Cc1ccc(CSC(Nc2ccc(F)cc2)=C(C#N)C#N)cc1 | – | inconclusive: 29.1 µM [activator, partial curve, poor fit]
COc1cccc(Nc2nc3ccc(OC)cc3s2)c1 | – | inactive
CCOC(=O)N1CCN(S(=O)(=O)c2c(C(=O)N3CCCCC3)c(C)n(C)c2C)CC1 | – | inactive
CCSc1nnc(NC(=O)c2csc3c2CCCC3)s1 | – | active: 14.6 µM
O=C(CSc1nc2ccccc2c(=O)n1CCCO)NC1CC1 | – | inconclusive: 0.259 µM [activator, partial curve, poor fit]

SMILES | re-replication activation | Potency
COc1ccc(/C=C/C(=O)N2CCCc3ccccc32)cc1 | – | inconclusive: 29.1 µM [activator, single point]
COc1cc(NC(=O)Nc2cccc(Cl)c2)c(OC)cc1NC(=O)CN1CCCCC1 | – | inconclusive: 18.4 µM [activator, single point]
CN(C)S(=O)(=O)c1cccc(NC(=O)c2cncc(Br)c2)c1 | – | inactive
CCCN1CCC(NC(=O)Cc2ccccc2OC)CC1 | – | inconclusive: 6.51 µM [activator, single point]
O=C(NCCCCCNC(=O)c1ccccn1)c1ccccn1 | – | inconclusive: 0.82 µM [activator, full curve, poor fit]
CC(C)(C)c1cc(C(=O)NCCN2CCCC2)cc(C(C)(C)C)c1 | – | inconclusive: 18.4 µM [activator, single point]
CCC(=O)O[C@@H]1[C@H](C)O[C@H](O[C@H]2[C@@H](N(C)C)[C@H](O)[C@@H](O[C@@H]3[C@@H](CC=O)C[C@@H](C)[C@@H](O)/C=C\C=C/C[C@@H](C)OC(=O)C[C@@H](OC(=O)CC)[C@H]3OC)O[C@H]2C)C[C@]1(C)O | – | inactive
O=S(=O)(CCN1CCN(C(c2ccccc2)c2ccccc2)CC1)C(F)(F)F | – | inconclusive: 16.4 µM [activator, single point]
CCOc1ccc(N(C(=O)c2snc(C(N)=O)c2N)C(C(=O)NCC2CCCO2)c2ccco2)cc1 (stereo not drawn) | – | inconclusive: 2.59 µM [activator, partial curve]
C/C(=N\Nc1nc(C)cc(C)n1)c1ccc(N2CCOCC2)cc1 | – | inconclusive: 20.6 µM [activator, single point]
O=C(CCN1CCCC1=O)NC1CCCc2c1cnn2-c1ccccc1F (stereo not drawn) | – | inactive
CCCn1c(NCc2ccc(C)o2)nc2ccccc21 | – | inconclusive: 16.4 µM [activator, single point]
COc1ccccc1NC1=C(Cl)C(=O)N(c2ccccc2)C1=O | – | active: 10.3 µM
Cc1cc(-c2ccc(C(C)C)c(S(=O)(=O)N3CCOc4ccccc43)c2)on1 | – | inconclusive: 20.6 µM [activator, single point]
O=C(CSc1ccccc1C(=O)NCc1ccccc1)NC12CC3CC(CC(C3)C1)C2 | – | inconclusive: 0.058 µM [activator, full curve, poor fit]
COc1ccc(S(N)(=O)=O)cc1C(=O)NNC(=O)c1cccc(S(=O)(=O)N2CCOCC2)c1 | – | inactive
C[C@H]1[C@@H](c2ccccc2)Oc2ccc(Cl)cc2S(=O)(=O)N1Cc1ccc(F)cc1F | – | inconclusive: 0.206 µM [activator, full curve, poor fit]
CCCCCCCCCCCCCC[n+]1ccc(C)cc1 | – | inconclusive: 16.8 µM [activator, partial curve]
O=C(c1cc(-c2cccs2)nn1-c1ccccc1)N1CCN(S(=O)(=O)c2ccccc2)CC1 | – | inconclusive: 0.13 µM [activator, full curve, poor fit]
COc1cnc(-c2cccc(C(F)(F)F)c2)[nH]c1=O | – | inconclusive: 29.1 µM [activator, partial curve, poor fit]
COc1ccccc1N(C)S(=O)(=O)c1ccc(C(=O)NNC(=O)c2ccccc2O)cc1 | – | inconclusive: 6.51 µM [activator, partial curve]
O=C(COC(=O)C12CC3CC(CC(C3)C1)C2)NCCCc1ccccc1 | inconclusive: 38.3% [activator] | –
O=C(COC(=O)c1ccc(O)cc1O)c1ccc2c(c1)OCO2 | – | inactive

Record cards (already shown). Order of values: re-replication activation	Potency
`Cc1cc(-c2ccc(C(C)C)c(S(=O)(=O)N3CCOc4ccccc43)c2)on1` as listed: –	inconclusive: 20.6 µM [activator, single point]
`CC(C)(C)c1cc(C(=O)NCCN2CCCC2)cc(C(C)(C)C)c1` as listed: –	inconclusive: 18.4 µM [activator, single point]
`O=C(NCCCCCNC(=O)c1ccccn1)c1ccccn1` as listed: –	inconclusive: 0.82 µM [activator, full curve, poor fit]
`C/C(=N\Nc1nc(C)cc(C)n1)c1ccc(N2CCOCC2)cc1` as listed: –	inconclusive: 20.6 µM [activator, single point]

More results follow:

SMILES | re-replication activation | Potency
NC(=O)c1cc(-c2ccccc2)nc(N2CCOCC2)n1 | – | inconclusive: 29.1 µM [activator, partial curve, poor fit]
CCCNC(=O)Nc1nnc(C2CC2)s1 | – | inconclusive: 20.6 µM [activator, single point]
Cc1ccccc1Cn1c(=N)n(CC(=O)c2ccco2)c2ccccc21 | – | inactive
CCOC(=O)c1ccc(N/C=C/C(=O)c2ccccc2)cc1 | – | inconclusive: 32.6 µM [activator, single point]
COc1ccccc1-c1cnn2c(NCc3ccccc3)cc(C)nc12 | – | inconclusive: 32.6 µM [activator, partial curve, poor fit]
CC1(C)Cc2c(c(N3CCOCC3)nc3sc(C(=O)Nc4ccc(Cl)cc4)c(N)c23)CO1 | – | inactive
Cc1cc2oc(=O)cc(CN3CCOCC3)c2c(C)c1Cl | – | inactive
COc1cccc(/C=C/C(=O)OCC(=O)N2CCCC2)c1OC | – | inconclusive: 20.6 µM [activator, single point]
COc1ccc(C2C3=C(COC3=O)Oc3cc4c(cc32)OCO4)cc1OC (stereo not drawn) | – | active: 5.8 µM
C(=NN1CCCCCC1)c1ccc2c(c1)OCO2 | – | inactive
Cc1ccc(NC(=O)CC2SCCNC2=O)cc1Cl (stereo not drawn) | – | inactive
CCOc1ccc(S(=O)(=O)NCCC(=O)NCCOc2ccccc2OC)cc1 | – | inconclusive: 0.164 µM [activator, full curve, poor fit]
COc1ccc(CC(=O)c2ccccc2C(=O)O)cc1 | – | inconclusive: 29.1 µM [activator, single point]
CCN1CCN(c2c(Cl)cccc2NC(=O)c2cccs2)CC1 | – | inconclusive: 1.3 µM [activator, full curve, poor fit]
O=Cc1cccc(OCc2cccc3ccccc23)c1 | – | inconclusive: 29.1 µM [activator, single point]
CC(C)(C)NC(=S)NCC1CC1 | – | inconclusive: 16.4 µM [activator, single point]
COC(=O)[C@]1(Cc2ccccc2)N[C@H](CN(C)S(=O)(=O)c2ccc(OC(F)(F)F)cc2)[C@@H]2C(=O)N(C)C(=O)[C@@H]21 | – | inconclusive: 9.2 µM [activator, partial curve, poor fit]
Cc1ccccc1CN1CCNC(=O)C1CC(=O)N(C)CCC1CCOCC1 (stereo not drawn) | – | inconclusive: 20.6 µM [activator, single point]
CN(C)/C=C1\C(=O)N(c2ccc(F)cc2F)C(c2cccnc2)S1(=O)=O (stereo not drawn) | – | inactive
Cc1ccc(-n2c(-c3cccnc3)n[nH]c2=S)c(C)c1 | – | inactive
COc1cc(SC)ccc1C(=O)Nc1ccncc1 | – | inactive
O=C(COc1ccc2c3c(c(=O)oc2c1)CCC3)Nc1ccccn1 | – | inactive
